Measured values as given in paper PMC9132924.
These are yes or no findings as the source states them, for the method shown. Some binding calls cover weakened binding; strength is not graded here.

Chains of the proteins cited; added tags and fusions are not shown.
UniProt Q04207: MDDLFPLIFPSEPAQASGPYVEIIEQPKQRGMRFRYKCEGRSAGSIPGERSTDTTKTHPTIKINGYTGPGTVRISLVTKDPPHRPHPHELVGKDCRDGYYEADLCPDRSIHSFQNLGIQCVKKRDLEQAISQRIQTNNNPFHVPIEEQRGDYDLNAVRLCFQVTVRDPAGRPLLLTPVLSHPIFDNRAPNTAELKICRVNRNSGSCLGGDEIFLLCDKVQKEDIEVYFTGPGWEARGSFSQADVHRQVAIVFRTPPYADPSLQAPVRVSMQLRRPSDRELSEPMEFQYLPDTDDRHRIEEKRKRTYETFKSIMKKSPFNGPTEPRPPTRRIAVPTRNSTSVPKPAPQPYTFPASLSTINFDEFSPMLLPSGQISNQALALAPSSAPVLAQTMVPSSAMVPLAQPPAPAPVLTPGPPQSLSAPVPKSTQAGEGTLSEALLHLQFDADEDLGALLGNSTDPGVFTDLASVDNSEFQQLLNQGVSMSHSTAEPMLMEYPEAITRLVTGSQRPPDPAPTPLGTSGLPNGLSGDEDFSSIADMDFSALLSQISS
UniProt Q3TKT4: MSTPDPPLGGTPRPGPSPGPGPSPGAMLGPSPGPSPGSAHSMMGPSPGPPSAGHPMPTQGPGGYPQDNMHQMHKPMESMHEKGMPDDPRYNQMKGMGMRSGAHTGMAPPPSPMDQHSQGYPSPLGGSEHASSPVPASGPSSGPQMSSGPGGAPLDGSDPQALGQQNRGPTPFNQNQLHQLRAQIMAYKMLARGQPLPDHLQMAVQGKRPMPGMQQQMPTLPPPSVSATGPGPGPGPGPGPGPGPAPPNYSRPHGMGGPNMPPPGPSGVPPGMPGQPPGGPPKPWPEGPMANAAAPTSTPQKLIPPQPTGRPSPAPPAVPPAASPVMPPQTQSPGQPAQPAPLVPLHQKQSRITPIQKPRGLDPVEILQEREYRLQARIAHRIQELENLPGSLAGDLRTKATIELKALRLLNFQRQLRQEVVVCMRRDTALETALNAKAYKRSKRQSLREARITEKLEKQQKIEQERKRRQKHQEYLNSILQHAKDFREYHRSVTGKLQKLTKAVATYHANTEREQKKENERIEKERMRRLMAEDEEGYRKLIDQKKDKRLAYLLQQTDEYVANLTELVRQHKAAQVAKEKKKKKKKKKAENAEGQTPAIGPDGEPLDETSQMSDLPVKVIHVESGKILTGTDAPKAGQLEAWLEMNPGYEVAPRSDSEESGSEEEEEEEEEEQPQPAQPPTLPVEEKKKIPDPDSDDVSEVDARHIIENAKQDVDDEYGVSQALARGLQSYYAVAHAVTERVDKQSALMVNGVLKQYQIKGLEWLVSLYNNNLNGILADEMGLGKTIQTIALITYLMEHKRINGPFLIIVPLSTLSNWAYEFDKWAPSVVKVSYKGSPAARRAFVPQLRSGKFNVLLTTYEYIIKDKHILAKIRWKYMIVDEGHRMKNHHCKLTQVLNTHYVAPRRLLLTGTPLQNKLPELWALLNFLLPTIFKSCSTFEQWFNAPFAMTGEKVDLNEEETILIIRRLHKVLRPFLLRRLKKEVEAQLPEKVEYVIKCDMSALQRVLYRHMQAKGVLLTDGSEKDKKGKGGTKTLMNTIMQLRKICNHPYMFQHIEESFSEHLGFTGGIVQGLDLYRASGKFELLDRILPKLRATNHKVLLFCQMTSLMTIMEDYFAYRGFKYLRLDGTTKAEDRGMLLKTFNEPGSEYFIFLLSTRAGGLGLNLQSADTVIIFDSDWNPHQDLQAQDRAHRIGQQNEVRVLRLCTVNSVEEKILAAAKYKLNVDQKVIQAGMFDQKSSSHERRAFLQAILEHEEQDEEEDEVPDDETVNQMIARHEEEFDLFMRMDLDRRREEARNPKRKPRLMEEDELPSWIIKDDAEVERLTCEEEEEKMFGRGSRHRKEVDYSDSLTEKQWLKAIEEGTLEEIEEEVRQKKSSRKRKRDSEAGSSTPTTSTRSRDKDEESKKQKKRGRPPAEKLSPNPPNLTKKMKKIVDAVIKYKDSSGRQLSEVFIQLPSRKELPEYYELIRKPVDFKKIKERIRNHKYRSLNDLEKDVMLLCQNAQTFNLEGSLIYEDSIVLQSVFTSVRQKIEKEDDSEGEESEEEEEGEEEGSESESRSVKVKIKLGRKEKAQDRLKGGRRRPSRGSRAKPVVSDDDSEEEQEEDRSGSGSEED

Molecular target: nuclear factor kappa B (NF-κB)/RelA (mouse (endogenous in primary murine hepatocytes)) (UniProt Q04207)
Test: Re-ChIP (sequential chromatin immunoprecipitation); primary murine hepatocytes treated with HGF (20 ng/ml), harvested at indicated time points; Re-ChIP with indicated antibodies; proximal eotaxin promoter amplified

Substance: Brahma-related gene 1 (Brg1) (from UniProt Q3TKT4 1-1613)
- binding: binds
